This experiment deals with CD2F1 mice, L1210 leukemia ip, survival T/C. Put plainly: NCI In Vivo Anticancer Drug Screen. Data for tumor model L1210 Leukemia (intraperitoneal) in CD2F1 (CDF1) mice. The settings on record: higher T/C = longer survival. The essentials:
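In this screen, transplantable tumors were grown in mice given either the compound or its vehicle. Results were expressed as the treated measurement relative to the control measurement.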

Where [1] appears, read: T/C endpoint: mean survival time, dose: 100.0 mg/kg/injection, schedule: Q04DX003 (ip), vehicle: saline with Tween-80.
Setting [2] is: T/C endpoint: mean survival time, dose: 200.0 mg/kg/injection, schedule: Q04DX003 (ip), vehicle: saline with Tween-80.
Setting [3] is: T/C endpoint: mean survival time, dose: 400.0 mg/kg/injection, schedule: Q04DX003 (ip), vehicle: saline with Tween-80.
Setting [4] is: T/C endpoint: mean survival time, dose: 400.0 mg/kg/injection, schedule: Q04DX002 (ip), vehicle: saline with Tween-80.
[5] abbreviates: T/C endpoint: mean survival time, dose: 200.0 mg/kg/injection, schedule: Q01DX009 (ip), vehicle: saline with Tween-80.

The list does not hold the whole screen: it gathers tests that were run many times, whatever their T/C, doses with no T/C, and many T/C values between a quarter and a half above the control. Further doses and runs are listed elsewhere. T/C is the treated group as % of the vehicle group. Some doses have a count of surviving animals in place of a T/C: the source holds a T/C of zero for them, seemingly a mark for toxic or unscored doses. Some survivor counts are full or nearly so, which does not show that the dose was tolerated: survival well below the control is almost never listed, so the zero probably covers shortened survival too. Survivors were counted at the toxicity check, usually on the fifth day, unless a day is given; later deaths do not show. Schedules are NCI's codes, taken here to give the interval after Q, in days (D) or hours (H), and the number of doses after X. Where survival is the endpoint, this PubChem deposit counts one and a half times the control or more as active, and values a quarter to a half above the control carry no call in these data; other NCI protocols may use other cut-offs.

For the compound `C1N2CN3CN1CN(C2)C3.[Cl][Pt]([Cl])[Cl]`, the survivor count was 5 of 6 (T/C endpoint: mean survival time, dose: 100.0 mg/kg/injection, schedule: Q04DX003 (ip), vehicle: distilled water + Tween-80) and 1 of 6 (T/C endpoint: mean survival time, dose: 200.0 mg/kg/injection, schedule: Q04DX003 (ip), vehicle: distilled water + Tween-80). Take `CCOC(=O)c1c(C)c2c(n1C)CC/C(=C\O)C2=O`: the survivor count by setting is: (T/C endpoint: mean survival time, dose: 200.0 mg/kg/injection, schedule: Q04DX002 (ip), vehicle: other) 0 of 3; (T/C endpoint: mean survival time, dose: 400.0 mg/kg/injection, schedule: Q04DX002 (ip), vehicle: other) 0 of 3. Turning to `Cc1ccc(S(=O)(=O)N/N=C2/CC3CCC(C)(C2)C3)cc1` (stereo not given), the survivor count under setting [1] is listed as 6 of 6 and the survivor count under setting [2] is on record as 6 of 6. Turning to `CCOC(=O)NP(=O)(N1CC1(C)C)N1CC1(C)C` (stereo not given), the T/C (T/C endpoint: mean survival time, dose: 360.0 mg/kg/injection, schedule: Q01DX009 (ip), vehicle: saline) is 145 % of control. Regarding `CCCCCOS(=O)(=O)c1ccc(Cl)c([N+](=O)[O-])c1`, the survivor count runs as follows: under setting [2], 2 of 6; under setting [3], 0 of 6. Regarding `CCN1c2ccccc2Sc2cc(C=O)ccc21`, the survivor count (T/C endpoint: mean survival time, dose: 200.0 mg/kg/injection, schedule: Q01DX009 (ip), vehicle: Klucel (hydroxypropylcellulose) (HPC)) was 3 of 3.

In the case of `O=C(CCN1CC1)NCCCCCCCCNC(=O)CCN1CC1`, the survivor count (T/C endpoint: mean survival time, dose: 75.0 mg/kg/injection, schedule: Q01DX001 (ip), vehicle: carboxymethylcellulose (CMC)) was 1 of 6. For `N#CC(C#N)=NNc1ccc2cn[nH]c2c1`, the survivor count (T/C endpoint: median survival time, dose: 200.0 mg/kg/injection, schedule: Q01DX009 (ip), vehicle: Klucel (hydroxypropylcellulose) (HPC)) was 3 of 6.

Turning to `CO[C@@]12[C@@H]3N[C@@H]3CN1C1=C(C(=O)C(NCc3ccco3)=C(C)C1=O)[C@@H]2COC(N)=O`, the T/C by setting is: (T/C endpoint: mean survival time, dose: 6.0 mg/kg/injection, schedule: Q01DX001 (ip), vehicle: distilled water + Tween-80) 133 % of control; (T/C endpoint: mean survival time, dose: 12.0 mg/kg/injection, schedule: Q01DX001 (ip), vehicle: distilled water + Tween-80) 127 % of control.

On to `CC(C)CCC(=O)c1ccccc1`, for which, under setting [4], the survivor count is given as 3 of 3. With `[Cl][Pd][Cl]`, the survivor count is 2 of 6 (T/C endpoint: mean survival time, dose: 25.0 mg/kg/injection, schedule: Q01DX009 (ip), vehicle: saline sonified); 2 of 6 (T/C endpoint: mean survival time, dose: 50.0 mg/kg/injection, schedule: Q01DX009 (ip), vehicle: saline sonified); 6 of 6 under setting [1]; 4 of 6 under setting [2]; 2 of 6 under setting [3]. On to `Cc1cc[n+](CCc2ccccc2)cc1`, for which the survivor count (T/C endpoint: mean survival time, dose: 100.0 mg/kg/injection, schedule: Q01DX009 (ip), vehicle: saline with Tween-80) was 1 of 6. Turning to `OC12Cc3ccccc3C1=NN(c1ccccc1)C2c1ccccc1` (stereo not given), under setting [5], the survivor count was 6 of 6. For the compound `Nc1nc(N)c(-c2ccc(Cl)c(Cl)c2)c(CBr)n1`, the survivor count (T/C endpoint: mean survival time, dose: 50.0 mg/kg/injection, schedule: Q01DX009 (ip), vehicle: saline with Tween-80) is recorded as 2 of 3. For `O=C1CC2C3=C(CCC3)CCN2C2=C1CC(OC(=O)c1ccccc1)CC2` (stereo not given), the survivor count by setting is: under setting [1], 6 of 6; under setting [2], 6 of 6; under setting [3], 6 of 6.

As for `COc1cc(OC)c(OC)cc1/C=c1\[nH]c(=O)/c(=C/c2cc(OC)c(OC)cc2OC)[nH]c1=O`, the survivor count by setting is: under setting [1], 6 of 6; under setting [3], 4 of 6. `CC(C(=O)c1ccccc1)C(c1ccccc1)P(=O)(c1ccccc1)c1ccccc1` (stereo not given): the survivor count under setting [5] is given as 3 of 6. Take `COc1ccc(N=N/N=c2\sc3cc(OC)ccc3n2C)cc1`: the survivor count (T/C endpoint: median survival time, dose: 340.0 mg/kg/injection, schedule: Q01DX005 (ip), vehicle: saline with Tween-80) is 4 of 6 and the survivor count (T/C endpoint: median survival time, dose: 680.0 mg/kg/injection, schedule: Q01DX005 (ip), vehicle: saline with Tween-80) is 6 of 6.

Take `ClCc1cnc[nH]1`: the survivor count (T/C endpoint: mean survival time, dose: 400.0 mg/kg/injection, schedule: Q04DX002 (ip), vehicle: saline) is reported as 0 of 3. In the case of `CN1C(=O)CCSC1=S`, the survivor count is 3 of 3 (T/C endpoint: mean survival time, dose: 100.0 mg/kg/injection, schedule: Q04DX002 (ip), vehicle: saline with Tween-80); 3 of 3 (T/C endpoint: mean survival time, dose: 200.0 mg/kg/injection, schedule: Q04DX002 (ip), vehicle: saline with Tween-80); 3 of 3 under setting [4].

(Values after PubChem BioAssay AID256 (DTP/NCI, 2004).)
